# The comparison behind a weaker result is the experiment's own reference, which may not be listed here.
# The chains behind the UniProt entries cited, without tags or fusion partners. Where a name states a change or a piece, a line headed by the entry shows the natural chain unless it says otherwise.
# UniProt Q92993: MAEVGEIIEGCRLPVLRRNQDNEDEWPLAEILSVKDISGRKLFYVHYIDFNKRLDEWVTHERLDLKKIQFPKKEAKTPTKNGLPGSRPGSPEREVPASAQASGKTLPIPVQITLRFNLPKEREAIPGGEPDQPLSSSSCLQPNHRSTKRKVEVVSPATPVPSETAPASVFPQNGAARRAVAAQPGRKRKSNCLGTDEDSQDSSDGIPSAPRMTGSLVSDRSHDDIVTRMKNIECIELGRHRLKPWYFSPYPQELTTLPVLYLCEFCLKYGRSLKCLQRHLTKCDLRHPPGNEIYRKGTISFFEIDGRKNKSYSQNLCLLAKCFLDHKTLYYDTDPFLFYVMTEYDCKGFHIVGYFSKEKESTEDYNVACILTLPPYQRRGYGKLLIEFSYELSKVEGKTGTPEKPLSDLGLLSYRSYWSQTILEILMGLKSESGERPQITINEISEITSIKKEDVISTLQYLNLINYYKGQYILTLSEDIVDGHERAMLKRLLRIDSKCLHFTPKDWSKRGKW
# Target: TIP60 (KAT5), full length (UniProt Q92993)
# Assay: EMSA
# Details: purified recombinant protein, protein details: SignalChem
sequence,measurement,setting,value
UUAUGUUAUUGUUUAUAUACGU [Mut_RM9A],binding result,"strength and mobility of complex changed, label: 5'-32P, variant of RM9A",binds more weakly
CTTTCCTCCACTCTCCCTGGGA (double strand) [DM2 (DNA duplex of UR2 sequence)],binding result,"weak complex, label: 32P, variant of UR2",binds more weakly
GCCCTTTCCCCAGCCTTAGCGA (double strand) [DM3 (DNA duplex of UR3 sequence)],binding result,"weak complex, text says same sequence as UR3, label: 32P, variant of UR3",binds more weakly
GGCGTGGCGGTGGGCGCGCAGT (double strand) [DM9A (DNA duplex of RM9A sequence)],binding result,"weaker than RM9A RNA, text says same sequence as RM9A, label: 32P, variant of RM9A",binds more weakly

# Source: patent publication US20240209456
